Measurements reported in PubChem BioAssay AID853 (Columbia University Molecular Screening Center, 2007).
Screen size: about 47,000 compounds; about 200 (0.43%) were called active. Inconclusive means that the source gave no clear call. Such entries were picked first, then a sample of the others.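 How the source made its calls: active means inhibition of aggregate fluorescence above about 70%, also judged a hit by eye on the cell image (limit read from the data, passing the limit was not always enough); inconclusive means no rule stated for this call; inactive means not judged a hit on image review.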

Assay: clearance of mutant huntingtin inclusions, primary screen, imaging, HeLa Exon1htt(103Q)mCFP, confocal imaging (AID 853);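 further: cells exposed to compound for three days before fixation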
Conditions: aggregate imaging, at 1.5 µM, hits give high values, zero = plate's median compound well

Row | Structure (SMILES) | inhibition
1 | COc1ccc(N2CCN(C(=N)/C(C(C)=O)=C(\C)O)CC2)cc1 | inconclusive: 96.2%
2 | O=C(NCc1ccco1)C(c1ccco1)N(Cc1cccs1)C(=O)Cn1nnc2ccccc21 (stereo not given) | active: 83.3%
3 | CCN(CC)CCCN(Cc1cc2cc3c(cc2[nH]c1=O)OCO3)C(=O)Nc1ccccc1OC | inactive: -3%
4 | CCOC(=O)Cn1c2c(c(-c3ccccc3OC)cc1=O)CCCC2 | active: 75.9%
5 | O=C1c2ccncc2C(=O)N1Cc1cccc(Cl)c1 | inconclusive: 74.6%
6 | CCc1nnc(NC(=O)c2ccc(COc3ccc(C)cc3)o2)s1 | inactive: -18.6%
7 | CC1=C(C(=O)OCc2ccc3c(c2)OCO3)C(c2ccccc2)NC(=O)N1 (stereo not given) | active: 74.5%
8 | O=C1C=C(c2ccccc2)C(=O)N1Nc1ccccc1 | inconclusive: 74.3%
9 | COc1ccc(C(=O)CSc2nnc(CNC(=O)c3ccc(OC)cc3)n2C)cc1 | inconclusive: 71.6%
10 | COc1cccc(-c2nc(CS(=O)(=O)CC(=O)N3CCc4ccccc43)c(C)o2)c1 | inactive: 24.5%
11 | CC1(C)C(=O)NCCN1C(=O)CCC(=O)O | inactive: 13.9%
12 | CCC(C)(C)NC(=O)C(c1ccco1)N(C(=O)Cn1nnc2ccccc21)c1ccc2c(c1)OCO2 (stereo not given) | inconclusive: 76.4%
13 | CCc1ccc(N=c2c([N+](=O)[O-])nn(-c3ccccc3)n2O)cc1 | active: 70.9%
14 | CCn1c2ccccc2c2cc(NC(=O)CSc3nnc(-c4ccccc4OC)n3N)ccc21 | active: 75.7%
15 | CCOC(=O)c1[nH]c2cc3c(cc2c1NC(=O)CN1CCCCC1C)OCO3 (stereo not given) | inactive: -26%
16 | O=C(CSc1nnc(Cc2ccccc2)o1)Nc1ccc(Br)cn1 | inactive: -25.9%
17 | CC1(c2cnc(Nc3ccccc3)s2)CCC(=O)O1 (stereo not given) | inconclusive: 93.7%
18 | O=C(Nc1nc2c(s1)CCCC2)c1ccc(Br)o1 | inactive: 24.8%
19 | O=C(CSc1nnc(-c2cccs2)n1-c1ccccc1)NCc1ccc2c(c1)OCO2 | active: 72.6%
20 | COc1cc2c(cc1NC(=O)c1ccc3c(c1)OCO3)oc1ccccc12 | inactive: -42.3%

Row | Structure (SMILES) | inhibition
21 | CC(C)(C)C(=O)NC1CCN(C(=O)N2CCCC2)CC1 | active: 99.2%
22 | CCc1ccccc1NS(=O)(=O)c1ccc2[nH]cc(C(=O)NCC3CCCO3)c(=O)c2c1 (stereo not given) | active: 94.4%
23 | CCOc1ccc(NC(=O)c2cn(-c3ccc(OCC)cc3)c(=O)c3cc(OC)c(OC)cc23)cc1 | inactive: -18.7%
24 | COc1ccc(OCc2nnc(SC(C)C(=O)Nc3nccs3)n2-c2ccccc2)cc1 (stereo not given) | inconclusive: 71.8%
25 | COCCNC(=O)Cn1nc(-c2ccccc2OC)ccc1=O | inconclusive: 72.6%
26 | CCOc1ccc2[nH]c(=O)c(CN(CCO)C(=O)CC)cc2c1 | inconclusive: 76.3%
27 | COc1ccc(-c2nnc(SCC(=O)c3ccc(C)o3)o2)cc1 | inactive: -28.7%
28 | Cc1cc(NC(=O)c2cnn3c(C(F)F)cc(-c4ccccc4)nc23)no1 | inactive: -140%
29 | Cc1ccnc(NC(=O)CCCOc2cc(=O)n(C)c3ccccc23)c1 | inactive: -71.3%
30 | Cc1cc2ncn(S(=O)(=O)N3CCOCC3)c2cc1C | active: 70.5%
31 | COc1ccc(NC(=O)Nc2nccs2)cc1 | inconclusive: 72.5%
32 | CCN1CCN(C(=O)c2ccc(COc3ccc(Cl)cc3)o2)CC1 | inconclusive: 70%
33 | CCOC(=O)c1c(C)c(C(=O)Nc2ccccc2)c(C)n1CC | inconclusive: 72.9%
34 | O=c1/c(=C\c2cccnc2)sc2nc3ccccc3n12 | inactive: 24.6%
35 | CCc1cc2c(NC(C(=O)O)C(C)C)ncnc2s1 (stereo not given) | inconclusive: 88.9%
36 | Cc1cc(Cl)ccc1Oc1cccc(C(=O)/C(C#N)=C/N(C)C)c1 | inactive: 33.5%
37 | C=CCOC(=O)C1=C(C)NC(SCC(=O)OCC)=C(C#N)C1c1ccc(C)cc1 (stereo not given) | inconclusive: 84.8%
38 | COC(=O)Cc1cc(=O)[nH]c(Nc2nc3ccccc3o2)n1 | active: 75.1%
39 | CC(=O)N1CCc2cc(S(=O)(=O)NC(CC(C)C)C(=O)N3CCc4ccccc4C3)ccc21 (stereo not given) | inactive: 17.9%
40 | Cc1noc(C)c1CSc1nnc(-c2cc(Cl)ccc2Cl)n1N | inconclusive: 76.3%

Filtered by structure, the compounds so far containing bromine (two)
Row | Structure (SMILES) | inhibition
16 | O=C(CSc1nnc(Cc2ccccc2)o1)Nc1ccc(Br)cn1 | inactive: -25.9%
18 | O=C(Nc1nc2c(s1)CCCC2)c1ccc(Br)o1 | inactive: 24.8%

(list continues)

Row | Structure (SMILES) | inhibition
41 | O=C(c1ccc2snnc2c1)N1CCN(c2ccccc2)CC1 | inconclusive: 74.6%
42 | CCc1nc(SCC(=O)Nc2cccc(C(F)(F)F)c2)c2c(=O)n(C)c(=O)n(C)c2n1 | inactive: -4%
43 | CN1CCN(CCCNC(=O)c2cc3c(=O)n(C)c4ccccc4c3s2)CC1 | inactive: -9.9%
44 | Cc1cc(Cl)c(S(=O)(=O)Nc2ccc3c(c2)OCCO3)cc1OCC(N)=O | inconclusive: 70.6%
45 | O=C(CSc1ncnc2ccccc12)N1CCN(c2ccccc2)CC1 | inconclusive: 76.1%
46 | O=C(CSc1ncn[nH]1)Nc1ccccc1-c1ccccc1 | inconclusive: 71.8%
47 | CCOc1ccc(OCC)c(NC(=O)CN2CCN(c3cc(C)ccc3C)CC2)c1 | inconclusive: 73%
48 | O=C(O)c1nc(N2CCOCC2)nc(N2CCOCC2)n1 | inconclusive: 89.1%
49 | Cc1cccc(OCC(=O)N2CCN(C(=O)c3cccs3)CC2)c1 | inconclusive: 87.8%
50 | CC(=O)/C(=C/N(C)C)Sc1ccc(C)cc1 | inactive: 10.8%
51 | CCCCNC(=O)N(O)C1N(CCCC)C(=O)N(CC(=O)OC)C1(C)C (stereo not given) | inactive: -3.6%
52 | Cc1cc2c(s1)CCCCC(=O)N2 | inactive: -18.9%
53 | O=C(C1CCN(S(=O)(=O)c2cccnc2)CC1)N1CCN(c2cccc(Cl)c2)CC1 | inconclusive: 85.1%
54 | Cn1c(SCc2ccon2)nc2ccccc2c1=O | inactive: 22.3%
55 | COc1ccc(C2SCC(=O)N2c2c(C)n(C)n(-c3ccccc3)c2=O)cc1OC (stereo not given) | inactive: 14%
56 | Cn1nnnc1SCC(=O)N1c2ccccc2Sc2ccccc21 | inconclusive: 79.3%
57 | COc1cccc(CNC(=O)c2ccccc2N)c1 | active: 81.5%
58 | O=C(COC(=O)Cc1ccsc1)NC1CCCCCC1 | active: 74.2%
59 | CC1=C(C#N)C2C(/C1=N/O)C2(C)C (stereo not given) | inactive: 17.3%
60 | CCc1cccc(C)c1NC(=O)C1=C(C(=O)O)CCCC1 | inactive: -18.2%
